Assay results reported in patent publication US7807362.
For at least one entry, the source does not settle the construct or the ends of the probe. No signal at the amounts used counts as a negative. Protein sequences can lack the tags named with them.

Columns and labels:
[1] = molecular target: T1, hSlug (SNAI2) (Homo sapiens) (UniProt O43623); assay: activity in cells; details: protein in cells, protein details: pCMV-Slug expression vector
T1 sequence (looked up): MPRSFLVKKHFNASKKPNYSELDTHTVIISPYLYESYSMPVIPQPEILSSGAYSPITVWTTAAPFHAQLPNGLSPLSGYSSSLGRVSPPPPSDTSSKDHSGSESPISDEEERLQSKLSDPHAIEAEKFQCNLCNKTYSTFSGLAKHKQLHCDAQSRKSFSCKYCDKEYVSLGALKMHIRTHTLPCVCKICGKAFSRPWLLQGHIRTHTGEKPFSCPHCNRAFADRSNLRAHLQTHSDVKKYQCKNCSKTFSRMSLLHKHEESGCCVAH

[2] = molecular target: T2, hScratch (Homo sapiens) (UniProt Q9BWW7); assay: activity in cells; details: protein in cells, protein details: expression vector
T2 sequence (looked up, limits assumed): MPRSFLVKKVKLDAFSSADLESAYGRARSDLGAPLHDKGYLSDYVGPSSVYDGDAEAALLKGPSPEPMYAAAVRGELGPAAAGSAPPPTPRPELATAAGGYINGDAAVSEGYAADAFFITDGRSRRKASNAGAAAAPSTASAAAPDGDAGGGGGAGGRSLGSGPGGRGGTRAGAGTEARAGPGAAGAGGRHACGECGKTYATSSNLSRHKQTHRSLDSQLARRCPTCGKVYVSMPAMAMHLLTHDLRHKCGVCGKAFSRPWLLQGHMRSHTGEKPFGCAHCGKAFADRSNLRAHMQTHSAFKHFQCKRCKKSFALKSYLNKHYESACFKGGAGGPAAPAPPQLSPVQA

[3] = repression of luciferase in SK-N-BE(2)C

Sequence | activity on this sequence ([1]; little effect on reporter) | activity on this sequence ([2]; little effect on reporter) | activity on this sequence [1, 3] | activity on this sequence [2, 3]
GAATTCAGGGCAGGTCAGCTGCAGTGTAATATATGCCTATTGTCCCCTGATCAAGACAGAAAGACAGAATGAAAAGGAAGAAGGAAGGAAGGAACGGAGGAAAGAAAAGAGGGATGGAGGAAACAAATATGTAGGCAAACCTCTCCTCCTTTTTTTCCTTAGTCTCCTCATTGGTGCCATGGAGGTGTAGGTTCTGATAGCGTCCTCAGCGGACACAGGCCCTTGGATTCTAAATGTGTCCCAGCCCAGCTGTTGTGTGTCAGGGCCCCAGTGTCTGTGGGGAGATGGCCAGAGATGGACTCACAGCATCAGCCATTGCCTTTTACCCCATGGCCTGTGTCACCAAGTGCCATGGTAAGTGGAAGTGATGGCTCCCCAGAGATCACATTAGCTCTGATAATGCTCCAGCCTCCCATGCACAACTTGCCCTCAGGCCACCTGGCTGGGCAGGAAGAAGGGCTCCCAGAGAAGCCACATGGCCCCATGGCGGTGAGTCTGGGCGAGAGATGGAGAGAGACGCCTTCCCTTTTAGCCCAGTCCCAGCCTAGTGTCCTCACTGCTGACCCCCGGTAGTCTCTGAAACCACAGATGGAGCTCCCAGACTTGCTGATTGGCCCCCGTGATGGCGTGCGCATTAGGAGGAAATGCCTCCCTCCACCCTTGTAGCAAACACTTCCAGCTCCATGCCCACACCCCTTATCATCCACTGTTCCTGCCAGTGCAGACCCAACCCAATGGCTTCGTGCTGCCAGTACCTGGGGCTCTGCTGTTAGCCTTTCTCTGGCAGCAGGACAGGCTCATCCCTCTTATCAGACAGGCTGGACTTGGTGGGAAGTTGACACTCTGGGGGCGGCCTTCATGGATAAATACTGTAGTTTTCTTGCCCCTCAAGTGAGACAACCCCAAGGCGTGCTCTGTGCAGTCTCCCGAGGCCCCCACCAGGGCTGAGCACCAGTTTCCCCAGCAGCAAGTGCTCCTTAATCTACTTTCTCCTGGTTTCCTTCCCTTTGCTGTCTC (double strand) [4.0 kb hNET promoter-luciferase, -3081(A), pNET4000(i)LUC(A)] | not active | not active | – | –
GAATTCAGGGCAGGTCAGCTGCAGTGTAATATATGCCTATTGTCCCCTGATCAAGACAGAAAGACAGAATGAAAAGGAAGAAGGAAGGAAGGAACGGAGGAAAGAAAAGAGGGATGGAGGAAACAAATATGTAGGCAAACCTCTCCTCCTTTTTTTCCTTAGTCTCCTCATTGGTGCCATGGAGGTGTAGGTTCTGATAGCGTCCTCAGCGGACACAGGCCCTTGGATTCTAAATGTGTCCCAGCCCAGCTGTTGTGTGTCAGGGCCCCAGTGTCTGTGGGGAGATGGCCAGAGATGGACTCACAGCATCAGCCATTGCCTTTTACCCCATGGCCTGTGTCACCAAGTGCCATGGTAAGTGGAAGTGATGGCTCCCCAGAGATCACATTAGCTCTGATAATGCTCCAGCCTCCCATGCACAACTTGCCCTCAGGCCACCTGGCTGGGCAGGAAGAAGGGCTCCCAGAGAAGCCACATGGCCCCATGGCGGTGAGTCTGGGCGAGAGATGGAGAGAGACGCCTTCCCTTTTAGCCCAGTCCCAGCCTAGTGTCCTCACTGCTGACCCCCGGTAGTCTCTGAAACCACAGATGGAGCTCCCAGACTTGCTGATTGGCCCCCGTGATGGCGTGCGCATTAGGAGGAAATGCCTCCCTCCACCCTTGTAGCAAACACTTCCAGCTCCATGCCCACACCCCTTATCATCCACTGTTCCTGCCAGTGCAGACCCAACCCAATGGCTTCGTGCTGCCAGTACCTGGGGCTCTGCTGTTAGCCTTTCTCTGGCAGCAGGACAGGCTCATCCCTCTTATCAGACAGGCTGGACTTGGTGGGAAGTTGACACTCTGGGGGCGGCCTTCATGGATAAATACTGTAGTTTTCTTGCCCCTCAAGTGAGACAACCCCAAGGCGTGCTCTGTGCAGTCTCCCGAGGCCCCCACCAGGGCTGAGCACCTGTTTCCCCAGCAGCAAGTGCTCCTTAATCTACTTTCTCCTGGTTTCCTTCCCTTTGCTGTCTC (double strand) [4.0 kb hNET promoter-luciferase, -3081(T), pNET4000(i)LUC(T)] | – | – | active | active
